Results from patent publication US5068247A, “2-aminopentanoic acid compounds and their use as immunosuppressants” (priority 1989, dated 1991).
Some of these results come from one statement about several compounds together.

System: mouse allogenic MLR (BALB/c mouse spleen cells stimulated with C57BL/6 mouse spleen cells)
Experiment: mouse allogenic mixed lymphocyte reaction (MLR), 3H-thymidine uptake
Format: cell-based
Details: 1 to 0.0001 μg/ml
Procedure: The immunosuppressive activity of the compounds was assayed on the basis of mouse allogenic mixed lymphocyte reaction (hereinafter sometimes abbreviated as MLR). Mouse allogenic MRL was carried out using a mixed culture of BALB/c mouse (H-2^d) spleen cells as the responder cells and mitomycin C-treated C57BL/6 ([…]) mouse spleen cells as the stimulator cells in equal amounts.
The responder cells were prepared as follows:
The spleen was resected from 5- to 6-week-old BALB/c mice, and single cell suspension of spleen cells was prepared by using the RPMI1640 culture medium (containing 60 μg/ml of kanamycin sulfate, 2 mM of L-glutamine, 10 mM of N-2-hydroxyethylpiperazine-N'-2-ethanesulphonate (HEPES) and 0.1% sodium hydrogencarbonate) to which heat-inactivated fetal calf serum (hereinafter sometimes abbreviated as FCS) had been added to 5%. […]
The blastogenesis of lymphocytes was assayed using ^3 H-thymidine uptake as an index. […] Cells were harvested by a cell-harvester, and the radioactivity incorporated into the cells was determined by a liquid scintillation counter, which was used as an index of blastogenesis of lymphocytes in the mouse allogenic MLR. The suppression of the mouse allogenic MLR was evaluated by calculating the percent suppression by the following formula. […]

`CCCCCCC(O)C=CCCCCC=CCC(O)C(O)C(N)(CO)C(=O)O` (centres unmarked) [Example 1] was tested, and the “suppressive activity in mouse allogenic MLR (in words)” value was “exhibited the suppressive activity in mouse allogenic MLR in a concentration-dependent manner”.
For `CCCCCCCCCCCCCCCC[C@@H](O)[C@H](O)[C@@](N)(CO)C(=O)O` [Example 2], the “suppressive activity in mouse allogenic MLR (in words)” value was “exhibited the suppressive activity in mouse allogenic MLR in a concentration-dependent manner”.
